Measured values reported in US20100003244A1 (TRIGEN, published 2010).
These are yes or no findings as the source states them, for the method shown. Ends that are not written are not given here.

Columns and labels:
Test in all cases: PepSpot array
GPVI peptide 110 (human) = target: T1, GPVI peptide 110 (human)
T1 sequence (peptide, N-terminus acetylated): SVAEFSEATAELT

GPVI peptide 60 (human) = target: T2, GPVI peptide 60 (human)
T2 sequence (peptide, N-terminus acetylated): QPGPAVSSGGDVT

GPVI peptide 106 (human) = target: T3, GPVI peptide 106 (human)
T3 sequence (peptide, N-terminus acetylated): RLPTEPPSSVAEF

GPVI peptide 58 (human) = target: T4, GPVI peptide 58 (human)
T4 sequence (peptide, N-terminus acetylated): SLSAQPGPAVSSG

GPVI peptide 29 (human) = target: T5, GPVI peptide 29 (human)
T5 sequence (peptide, N-terminus acetylated): YRLEKLSSSRYQD

GPVI peptide 57 (human) = target: T6, GPVI peptide 57 (human)
T6 sequence (peptide, N-terminus acetylated): KPSLSAQPGPAVS

GPVI peptide 100 (human) = target: T7, GPVI peptide 100 (human)
T7 sequence (peptide, N-terminus acetylated): ELVVTGTSVTPSR

GPVI peptide 50 (human) = target: T8, GPVI peptide 50 (human)
T8 sequence (peptide, N-terminus acetylated): PSDQLELVATGVF

GPVI peptide 28 (human) = target: T9, GPVI peptide 28 (human)
T9 sequence (peptide, N-terminus acetylated): DLYRLEKLSSSRY

GPVI peptide 84 (human) = target: T10, GPVI peptide 84 (human)
T10 sequence (peptide, N-terminus acetylated): IITVTAAHSGTYR

GPVI peptide 44 (human) = target: T11, GPVI peptide 44 (human)
T11 sequence (peptide, N-terminus acetylated): RCSYQNGSLWSLP

GPVI peptide 125 (human) = target: T12, GPVI peptide 125 (human)
T12 sequence (peptide, N-terminus acetylated): TSPKESDSPAGPA

GPVI peptide 67 (human) = target: T13, GPVI peptide 67 (human)
T13 sequence (peptide, N-terminus acetylated): QCQTRYGFDQFAL

GPVI peptide 104 (human) = target: T14, GPVI peptide 104 (human)
T14 sequence (peptide, N-terminus acetylated): VTPSRLPTEPPSS

GPVI peptide 49 (human) = target: T15, GPVI peptide 49 (human)
T15 sequence (peptide, N-terminus acetylated): SLPSDQLELVATG

GPVI peptide 90 (human) = target: T16, GPVI peptide 90 (human)
T16 sequence (peptide, N-terminus acetylated): RCYSFSSRDPYLW

GPVI peptide 5 (human) = target: T17, GPVI peptide 5 (human)
T17 sequence (peptide, N-terminus acetylated): FCLGLCLGRVPAQ

GPVI peptide 86 (human) = target: T18, GPVI peptide 86 (human)
T18 sequence (peptide, N-terminus acetylated): TAAHSGTYRCYSF

GPVI peptide 17 (human) = target: T19, GPVI peptide 17 (human)
T19 sequence (peptide, N-terminus acetylated): LPSSLVPLEKPVT

GPVI peptide 79 (human) = target: T20, GPVI peptide 79 (human)
T20 sequence (peptide, N-terminus acetylated): PERWYRASFPIIT

GPVI peptide 40 (human) = target: T21, GPVI peptide 40 (human)
T21 sequence (peptide, N-terminus acetylated): KRSLAGRYRCSYQ

GPVI peptide 123 (human) = target: T22, GPVI peptide 123 (human)
T22 sequence (peptide, N-terminus acetylated): RSITTSPKESDSP

GPVI peptide 61 (human) = target: T23, GPVI peptide 61 (human)
T23 sequence (peptide, N-terminus acetylated): GPAVSSGGDVTLQ

GPVI peptide 77 (human) = target: T24, GPVI peptide 77 (human)
T24 sequence (peptide, N-terminus acetylated): PYKNPERWYRASF

GPVI peptide 46 (human) = target: T25, GPVI peptide 46 (human)
T25 sequence (peptide, N-terminus acetylated): QNGSLWSLPSDQL

GPVI peptide 20 (human) = target: T26, GPVI peptide 20 (human)
T26 sequence (peptide, N-terminus acetylated): PLEKPVTLRCQGP

GPVI peptide 78 (human) = target: T27, GPVI peptide 78 (human)
T27 sequence (peptide, N-terminus acetylated): KNPERWYRASFPI

GPVI peptide 52 (human) = target: T28, GPVI peptide 52 (human)
T28 sequence (peptide, N-terminus acetylated): LELVATGVFAKPS

GPVI peptide 22 (human) = target: T29, GPVI peptide 22 (human)
T29 sequence (peptide, N-terminus acetylated): PVTLRCQGPPGVD

GPVI peptide 23 (human) = target: T30, GPVI peptide 23 (human)
T30 sequence (peptide, N-terminus acetylated): TLRCQGPPGVDLY

GPVI peptide 25 (human) = target: T31, GPVI peptide 25 (human)
T31 sequence (peptide, N-terminus acetylated): QGPPGVDLYRLEK

GPVI peptide 64 (human) = target: T32, GPVI peptide 64 (human)
T32 sequence (peptide, N-terminus acetylated): GGDVTLQCQTRYG

GPVI peptide 98 (human) = target: T33, GPVI peptide 98 (human)
T33 sequence (peptide, N-terminus acetylated): SDPLELVVTGTSV

GPVI peptide 103 (human) = target: T34, GPVI peptide 103 (human)
T34 sequence (peptide, N-terminus acetylated): TSVTPSRLPTEPP

GPVI peptide 72 (human) = target: T35, GPVI peptide 72 (human)
T35 sequence (peptide, N-terminus acetylated): FALYKEGDPAPYK

GPVI peptide 112 (human) = target: T36, GPVI peptide 112 (human)
T36 sequence (peptide, N-terminus acetylated): FSEATAELTVSFT

GPVI peptide 76 (human) = target: T37, GPVI peptide 76 (human)
T37 sequence (peptide, N-terminus acetylated): PAPYKNPERWYRA

GPVI peptide 42 (human) = target: T38, GPVI peptide 42 (human)
T38 sequence (peptide, N-terminus acetylated): AGRYRCSYQNGSL

GPVI peptide 51 (human) = target: T39, GPVI peptide 51 (human)
T39 sequence (peptide, N-terminus acetylated): DQLELVATGVFAK

GPVI peptide 71 (human) = target: T40, GPVI peptide 71 (human)
T40 sequence (peptide, N-terminus acetylated): DQFALYKEGDPAP

GPVI peptide 97 (human) = target: T41, GPVI peptide 97 (human)
T41 sequence (peptide, N-terminus acetylated): APSDPLELVVTGT

GPVI peptide 24 (human) = target: T42, GPVI peptide 24 (human)
T42 sequence (peptide, N-terminus acetylated): RCQGPPGVDLYRL

GPVI peptide 124 (human) = target: T43, GPVI peptide 124 (human)
T43 sequence (peptide, N-terminus acetylated): ITTSPKESDSPAG

GPVI peptide 81 (human) = target: T44, GPVI peptide 81 (human)
T44 sequence (peptide, N-terminus acetylated): YRASFPIITVTAA

GPVI peptide 121 (human) = target: T45, GPVI peptide 121 (human)
T45 sequence (peptide, N-terminus acetylated): TETSRSITTSPKE

GPVI peptide 107 (human) = target: T46, GPVI peptide 107 (human)
T46 sequence (peptide, N-terminus acetylated): PTEPPSSVAEFSE

GPVI peptide 45 (human) = target: T47, GPVI peptide 45 (human)
T47 sequence (peptide, N-terminus acetylated): SYQNGSLWSLPSD

GPVI peptide 59 (human) = target: T48, GPVI peptide 59 (human)
T48 sequence (peptide, N-terminus acetylated): SAQPGPAVSSGGD

GPVI peptide 96 (human) = target: T49, GPVI peptide 96 (human)
T49 sequence (peptide, N-terminus acetylated): WSAPSDPLELVVT

GPVI peptide 39 (human) = target: T50, GPVI peptide 39 (human)
T50 sequence (peptide, N-terminus acetylated): AMKRSLAGRYRCS

GPVI peptide 109 (human) = target: T51, GPVI peptide 109 (human)
T51 sequence (peptide, N-terminus acetylated): PSSVAEFSEATAE

GPVI peptide 122 (human) = target: T52, GPVI peptide 122 (human)
T52 sequence (peptide, N-terminus acetylated): TSRSITTSPKESD

GPVI peptide 80 (human) = target: T53, GPVI peptide 80 (human)
T53 sequence (peptide, N-terminus acetylated): RWYRASFPIITVT

GPVI peptide 69 (human) = target: T54, GPVI peptide 69 (human)
T54 sequence (peptide, N-terminus acetylated): RYGFDQFALYKEG

GPVI peptide 6 (human) = target: T55, GPVI peptide 6 (human)
T55 sequence (peptide, N-terminus acetylated): LGLCLGRVPAQSG

GPVI peptide 19 (human) = target: T56, GPVI peptide 19 (human)
T56 sequence (peptide, N-terminus acetylated): LVPLEKPVTLRCQ

GPVI peptide 48 (human) = target: T57, GPVI peptide 48 (human)
T57 sequence (peptide, N-terminus acetylated): LWSLPSDQLELVA

Measured: binding

B1: monoclonal antibody hGP 5C4 (antibody, V domains shown)
VH: EVKLQESGGGLVQPGRSLKLSCTASGFTFSDYFMSWVRQAPTRGLEWVASISSGGASAYWRDSVKGRFTISRDNAKSALYLQMDSLRSEDTATYFCARGELDFDYWGQGVMVAVSS
VL: ADPNSTLLSASVGDRVTLNCTASQNVYKNLAWYQQKLGEAPRLLLYSANSQTGIPSRFSGSGSGPDFTLTISSLQPEDVASYFCQQYYSGNTFGAGTKLELKR
notes: Monoclonal IgG from Lou/C rats immunized with Fc-GPVI-nt; also called ab 5C4; anti-GPVI mAb 5C4
no binding (tested: 500 LU): GPVI peptide 110 (human) | GPVI peptide 60 (human) | GPVI peptide 106 (human) | GPVI peptide 58 (human) | GPVI peptide 29 (human) | GPVI peptide 57 (human) | GPVI peptide 100 (human) | GPVI peptide 50 (human) | GPVI peptide 28 (human) | GPVI peptide 84 (human) | GPVI peptide 44 (human) | GPVI peptide 125 (human) | GPVI peptide 67 (human) | GPVI peptide 104 (human) | GPVI peptide 49 (human) | GPVI peptide 90 (human) | GPVI peptide 5 (human) | GPVI peptide 86 (human) | GPVI peptide 17 (human) | GPVI peptide 79 (human) | GPVI peptide 40 (human) | GPVI peptide 123 (human) | GPVI peptide 61 (human) | GPVI peptide 77 (human) | GPVI peptide 46 (human) | GPVI peptide 20 (human) | GPVI peptide 78 (human) | GPVI peptide 52 (human) | GPVI peptide 22 (human) | GPVI peptide 23 (human) | GPVI peptide 25 (human) | GPVI peptide 64 (human) | GPVI peptide 98 (human) | GPVI peptide 103 (human) | GPVI peptide 72 (human) | GPVI peptide 112 (human) | GPVI peptide 76 (human) | GPVI peptide 42 (human) | GPVI peptide 51 (human) | GPVI peptide 71 (human) | GPVI peptide 97 (human) | GPVI peptide 24 (human) | GPVI peptide 124 (human) | GPVI peptide 81 (human) | GPVI peptide 121 (human) | GPVI peptide 107 (human) | GPVI peptide 45 (human) | GPVI peptide 59 (human) | GPVI peptide 96 (human) | GPVI peptide 39 (human) | GPVI peptide 109 (human) | GPVI peptide 122 (human) | GPVI peptide 80 (human) | GPVI peptide 69 (human) | GPVI peptide 6 (human) | GPVI peptide 19 (human) | GPVI peptide 48 (human)
